Laboratory results from paper PMC5996148.
This is one part of the list. For some of these results: The exact form of the protein is not confirmed.

Protein sequences, listed by entry. Tags and fused reporters are not part of them. Lines headed by an entry give the natural chain unless they say otherwise; changes in a name come on top.
UniProt P31941: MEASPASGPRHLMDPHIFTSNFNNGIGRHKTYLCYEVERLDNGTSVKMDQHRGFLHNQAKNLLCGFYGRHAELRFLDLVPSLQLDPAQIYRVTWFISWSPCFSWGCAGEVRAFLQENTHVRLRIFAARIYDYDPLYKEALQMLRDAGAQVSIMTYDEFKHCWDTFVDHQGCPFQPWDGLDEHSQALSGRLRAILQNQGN
UniProt P05067, whole entry: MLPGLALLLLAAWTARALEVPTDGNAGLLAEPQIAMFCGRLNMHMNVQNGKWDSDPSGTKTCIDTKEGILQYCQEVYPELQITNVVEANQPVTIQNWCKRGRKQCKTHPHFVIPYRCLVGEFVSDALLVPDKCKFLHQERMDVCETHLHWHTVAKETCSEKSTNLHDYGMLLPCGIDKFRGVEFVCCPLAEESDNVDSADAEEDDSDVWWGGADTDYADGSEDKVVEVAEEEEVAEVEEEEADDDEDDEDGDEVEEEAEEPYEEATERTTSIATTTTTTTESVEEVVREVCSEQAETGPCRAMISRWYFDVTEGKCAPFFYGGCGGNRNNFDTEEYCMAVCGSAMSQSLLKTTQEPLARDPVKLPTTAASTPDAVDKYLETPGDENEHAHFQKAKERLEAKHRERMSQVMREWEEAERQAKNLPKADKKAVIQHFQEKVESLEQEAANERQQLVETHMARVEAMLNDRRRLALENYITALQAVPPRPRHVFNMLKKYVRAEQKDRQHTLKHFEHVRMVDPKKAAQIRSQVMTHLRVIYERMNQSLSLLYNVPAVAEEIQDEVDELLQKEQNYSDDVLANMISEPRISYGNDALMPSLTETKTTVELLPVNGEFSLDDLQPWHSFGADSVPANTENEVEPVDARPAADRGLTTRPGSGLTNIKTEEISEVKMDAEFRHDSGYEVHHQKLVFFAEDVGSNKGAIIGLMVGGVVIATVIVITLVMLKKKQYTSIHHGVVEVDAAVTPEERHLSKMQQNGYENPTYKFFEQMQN

How the values were obtained:
Assay in all cases: protein microarray (ProtoArray v5.0), streptavidin-Alexa Fluor 647
Conditions in all cases: 3'-biotin; 20 mM Tris (pH 7.5), 5 mM MgCl2, 100 mM KCl, 0.1% Tween-20, A/T-rich and random oligonucleotide blockers; temperature not stated; high values mean tight binding
APOBEC3A = APOBEC3A (UniProt P31941)
APOBEC3C = target: T1, APOBEC3C (UniProt Q9NRW3)
T1 sequence: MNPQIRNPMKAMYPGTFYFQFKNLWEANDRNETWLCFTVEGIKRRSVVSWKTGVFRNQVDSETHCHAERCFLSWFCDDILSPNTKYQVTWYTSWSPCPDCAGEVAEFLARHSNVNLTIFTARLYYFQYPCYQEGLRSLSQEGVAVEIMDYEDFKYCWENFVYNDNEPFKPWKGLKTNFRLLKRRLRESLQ

APOC2 (human) = test system: APOC2 (human)
APOH (human) = test system: APOH (human)
APP = APP (UniProt P05067)
APPL2 (human) = test system: APPL2 (human)
AQP5 (human) = test system: AQP5 (human)
AQP8 = target: T2, AQP8 (UniProt O94778)
T2 sequence: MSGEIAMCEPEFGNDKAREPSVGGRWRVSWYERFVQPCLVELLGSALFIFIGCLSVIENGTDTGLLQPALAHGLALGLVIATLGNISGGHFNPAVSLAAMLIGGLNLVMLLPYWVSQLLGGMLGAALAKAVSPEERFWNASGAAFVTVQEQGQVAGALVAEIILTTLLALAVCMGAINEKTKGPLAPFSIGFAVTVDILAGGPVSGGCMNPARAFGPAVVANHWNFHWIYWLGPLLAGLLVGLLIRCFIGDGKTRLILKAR

ARF4 (human) = test system: ARF4 (human)
ARF5 (human) = test system: ARF5 (human)

GGGGACAGGGGTATGGGGAGGGG [G4-3 biotinylated (CtG)]
binding signal (APOBEC3A): -0.332 z-score | binding signal (APOBEC3C): 4.77 z-score | binding signal (APOC2 (human)): -0.319 z-score | binding signal (APOH (human)): -0.33 z-score | binding signal (APP): -0.303 z-score | binding signal (APPL2 (human)): -0.328 z-score | binding signal (AQP5 (human)): -0.328 z-score | binding signal (AQP8): -0.329 z-score | binding signal (ARF4 (human)): -0.323 z-score | binding signal (ARF5 (human)): -0.327 z-score
